Some entries repeat one wording, which the source may state once for all of them.

Experimental findings from US20230119082A1, “(AZIRIDINYL HYDROXY)-FUNCTIONAL ORGANIC COMPOUNDS” (COVESTRO (NETHERLANDS) B.V., priority 2020, published 2023) are described below.

This series can be described thus: Crosslinking efficiency: chemical resistance of cured films. To be noted: film with polyurethane A-AQD, aziridine:carboxylic acid molar ratio 0.9; ethanol:demineralized water (1:1), 240 minutes.
Consider `CC1CN1CC(O)COc1ccc(C(C)(c2ccc(OCC(O)CN3CC3C)cc2)c2ccc(OCC(O)CN3CC3C)cc2)cc1` (stereo not drawn) [Example 2], for which the crosslinking efficiency entry is given as “good (the chemical resistance of a film measured as described in the specification is 3)”. On to `CC1CN1CC(O)COc1ccc(N(CC(O)CN2CC2C)CC(O)CN2CC2C)cc1` (stereo not drawn) [Example 3C], for which the crosslinking efficiency result was “good (the chemical resistance of a film measured as described in the specification is 3)”.

Turning to `CC1CN1CC(O)COc1ccc(C(C)(C)c2ccc(OCC(O)CN3CC3C)cc2)cc1` (stereo not drawn) [Example 4C], the crosslinking efficiency entry was “good (the chemical resistance of a film measured as described in the specification is 3)”. Then `CC1CN1CC(O)CN(Cc1cccc(CN(CC(O)CN2CC2C)CC(O)CN2CC2C)c1)CC(O)CN1CC1C` (stereo not drawn) [Example 2C], with “good (the chemical resistance of a film measured as described in the specification is 3)”; and `CCCCCCCC(CCCCCCCc1cccc(OCC(O)CN2CC2C)c1)c1ccc(OCC(O)CN2CC2C)cc1` (stereo not drawn) [Example 4], with “good (the chemical resistance of a film measured as described in the specification is 3)”; and `CC1CN1CC(O)COC(=O)NCCCCCCn1c(=O)n(CCCCCCNC(=O)OCC(O)CN2CC2C)c(=O)n(CCCCCCNC(=O)OCC(O)CN2CC2C)c1=O` (stereo not drawn) [Example 3], with “good (the chemical resistance of a film measured as described in the specification is 3)”.
